{
  "source": "paper PMC4441004",
  "about": "“Functional Characterization and Categorization of Missense Mutations that Cause Methylmalonyl‐CoA Mutase (MUT) Deficiency” (Human Mutation, 2014)",
  "target": "Methylmalonyl-CoA mutase (MUT), wild type (human) (UniProt P22033)",
  "assay": "SEC; Superdex 200 in the large-scale purification from E. coli; retention volumes of the mutants compared with wt MUT; data not shown; both purified",
  "note": "These are yes or no findings as the source states them, for the method shown. Some entries that bind do so weakly or less than the wild type.",
  "data": [
    {"binder": "Methylmalonyl-CoA mutase (MUT), wild type (enzyme, UniProt P22033 33-750) LHQQQPLHPEWAALAKKQLKGKNPEDLIWHTPEGISIKPLYSKRDTMDLPEELPGVKPFTRGPYPTMYTFRPWTIRQYAGFSTVEESNKFYKDNIKAGQQGLSVAFDLATHRGYDSDNPRVRGDVGMAGVAIDTVEDTKILFDGIPLEKMSVSMTMNGAVIPVLANFIVTGEEQGVPKEKLTGTIQNDILKEFMVRNTYIFPPEPSMKIIADIFEYTAKHMPKFNSISISGYHMQEAGADAILELAYTLADGLEYSRTGLQAGLTIDEFAPRLSFFWGIGMNFYMEIAKMRAGRRLWAHLIEKMFQPKNSKSLLLRAHCQTSGWSLTEQDPYNNIVRTAIEAMAAVFGGTQSLHTNSFDEALGLPTVKSARIARNTQIIIQEESGIPKVADPWGGSYMMECLTNDVYDAALKLINEIEEMGGMAKAVAEGIPKLRIEECAARRQARIDSGSEVIVGVNKYQLEKEDAVEVLAIDNTSVRNRQIEKLKKIKSSRDQALAERCLAALTECAASGDGNILALAVDASRARCTVGEITDALKKVFGEHKANDRMVSGAYRQEFGESKEITSAIKRVHKFMEREGRRPRLLVAKMGQDGHDRGAKVIATGFADLGFDVDIGPLFQTPREVAQQAVDADVHAVGISTLAAGHKTLVPELIKELNSLGRPDILVMCGGVIPPQDYEFLFEVGVSNVFGPGTRIPKAAVQVLDDIEKCLEKKQQSV", "values": [
      {"measurement": "binding", "value": "binds"}
    ]}
  ]
}
